Results taken from US20240180932A1, “S[…] COMPOUNDS IN THE MANAGEMENT OF AGEING AND RELATED DISORDERS” (SOCIETE DES PRODUITS NESTLE S.A., priority 2021, published 2024).
At least one structure is not confirmed: it was looked up by name or label, or the drawing left a doubt.

Tested on: Zebrafish larvae
Assay: Autophagy induction in Zebrafish larvae (LC3-ZsGreen reporter, LC3 punctae)
Type: in vivo
Settings: 1 μM
Method: FIG. 7. Compound 1 increases autophagy in Zebrafish larvae. An autophagy reporter zebrafish line was generated by stable expression of the LC3 protein fused to ZsGreen under the control of a skeletal muscle specific promoter. Larvae from outcrossed transgenic zebrafish were raised at 28 C under standard laboratory conditions and have been treated at 48 h post-fertilization in 96 well plates with varying concentrations of Compound 1 at different concentrations as indicated in the figure. After 16 hours of treatment larvae were anesthetized with 0.016% tricaine and imaged with ImageXpress confocal system at 20× magnification (Molecular Devices). Z stack images were captured for each larva and maximal projection images were produced. Ammonium chloride (final concentration 100 mM) was added for an additional 4 h to block lysosomal degradation. Images were acquired again as before. In order to quantify autophagic flux, number of LC3 punctae have been calculated in presence and in absence of ammonium chloride with MetaXpress software (Molecular Devices) and normalized by zebrafish area.

CO[C@H]1C[C@@H]2CC[C@@H](C)[C@@](O)(O2)C(=O)C(=O)N2CCCC[C@H]2C(=O)O[C@H]([C@H](C)C[C@@H]2CC[C@@H](O)[C@H](OC)C2)CC(=O)[C@H](C)/C=C(\C)[C@@H](O)[C@@H](OC)C(=O)[C@H](C)C[C@H](C)/C=C/C=C/C=C/1C [Rapamycin, reference compound]
Autophagy (LC-3) (in the presence of NH4Cl): capable of increasing LC-3 and autophagy
Autophagy (LC-3 II levels) (without NH4Cl): increased the levels of LC-3 II
